Data: US20260139066A1 (VRIJE UNIVERSITEIT BRUSSEL, published 2026)

Legend:
[1] = target: canine urokinase plasminogen activator receptor, recombinant protein (canine); test: SPR sensorgrams, 150-0.62 nM
[2] = target: canine urokinase plasminogen activator receptor, recombinant protein (canine); test: SPR, purified sdAbs on recombinant uPAR
[3] = target: canine urokinase plasminogen activator receptor, recombinant protein (canine); test: flow cytometry, 17 nM sdAb + anti-His-PE, c uPAR-transduced HEK293T cells
[4] = target: canine urokinase plasminogen activator receptor, recombinant protein (canine); test: SPR (Biacore T200), c uPAR immobilised on CM5 chip, sdAb injected in three-fold dilutions
[5] = target: canine urokinase plasminogen activator receptor, recombinant protein (canine); test: BE-ELISA: bacterial extract on coated recombinant uPAR, anti-HA detection, OD405 ratio of coated to uncoated well

Measured: binding

B1: sdAb 15 (clone 5A4) with carboxy-terminal hexahistidine tag (VHH)
VHH: QVQLQESGGGWVQPGGSLRLSCAASGFTLDYYGIGWFRQAPGKEREGVSCISSSDGSTYYADSVKGRFTISRDNAKNTVYLQMNSLKPEDTAVYYCATRGASCYYTGSYSLGYDYWGQGTQVTVSS
notes: Lead compound; C-terminal 6His for purified-protein SPR; koff screen used bacterial extracts of the pMECS-GG construct; also called sdAb15.6His; Nr 15
binds: all assays above

B2: sdAb 16 (clone 5A5) with carboxy-terminal hexahistidine tag (VHH)
VHH: QVQLQESGGGLVQPGGSLRLSCAISGFTLDYYGIGWFRQAPGKEREGVSCISSSDGSTYYADSVKGRFTISRDNAKNTVYLQMNSLKPEDTAVYYCATRGASCYYSGSYSLGYDYWGQGTQVTVSS
notes: C-terminal 6His for purified-protein SPR; koff screen used bacterial extracts; also called Nr 16
binds: [2] | [3] | [5]

B3: sdAb 18 (clone 5H2) with carboxy-terminal hexahistidine tag (VHH)
VHH: QVQLQESGGGLAQPGGSLRLSCTASGFTSDYYGIGWFRQAPGKEREGVSCISSSDGSTYYADSVKGRFTISRDNAKNTVYLQMNSLKPEDTAVYYCATRGASCYYTGSYSLGYDYWGQGTQVTVSS
notes: C-terminal 6His for purified-protein SPR; koff screen used bacterial extracts; also called Nr 18
binds: [2] | [3] | [5]

B4: sdAb 17 (clone 5B7) with carboxy-terminal hexahistidine tag (VHH)
VHH: QVQLQESGGGLVQPGGSLRLSCAVSGSTLEYYGIGWFRQAPGKEREGVSCISSSDGSTYYADSVKGRFTISRDNAKNTVYLQMNSLKPEDTAVYYCATRGASCYYTGSYSLGYDYWGQGTQVTVSS
notes: C-terminal 6His for purified-protein SPR; koff screen used bacterial extracts; also called Nr 17
binds: [2] | [3] | [5]

No constants are given. Whether binding was seen depends on the method and setting. Binding can be weak; no strength is given. Sequences can lack the tags named with a protein.
